Patent US8790934B2, “Nanoparticles” (Consejo Superior de Investigaciones Cientificas, priority 2000, dated 2014)
Some entries share one result that the patent states for a list of compounds.

The chains behind the UniProt entries cited, without tags or fusion partners. Residues count along the entry.
UniProt P00722, 2-1024: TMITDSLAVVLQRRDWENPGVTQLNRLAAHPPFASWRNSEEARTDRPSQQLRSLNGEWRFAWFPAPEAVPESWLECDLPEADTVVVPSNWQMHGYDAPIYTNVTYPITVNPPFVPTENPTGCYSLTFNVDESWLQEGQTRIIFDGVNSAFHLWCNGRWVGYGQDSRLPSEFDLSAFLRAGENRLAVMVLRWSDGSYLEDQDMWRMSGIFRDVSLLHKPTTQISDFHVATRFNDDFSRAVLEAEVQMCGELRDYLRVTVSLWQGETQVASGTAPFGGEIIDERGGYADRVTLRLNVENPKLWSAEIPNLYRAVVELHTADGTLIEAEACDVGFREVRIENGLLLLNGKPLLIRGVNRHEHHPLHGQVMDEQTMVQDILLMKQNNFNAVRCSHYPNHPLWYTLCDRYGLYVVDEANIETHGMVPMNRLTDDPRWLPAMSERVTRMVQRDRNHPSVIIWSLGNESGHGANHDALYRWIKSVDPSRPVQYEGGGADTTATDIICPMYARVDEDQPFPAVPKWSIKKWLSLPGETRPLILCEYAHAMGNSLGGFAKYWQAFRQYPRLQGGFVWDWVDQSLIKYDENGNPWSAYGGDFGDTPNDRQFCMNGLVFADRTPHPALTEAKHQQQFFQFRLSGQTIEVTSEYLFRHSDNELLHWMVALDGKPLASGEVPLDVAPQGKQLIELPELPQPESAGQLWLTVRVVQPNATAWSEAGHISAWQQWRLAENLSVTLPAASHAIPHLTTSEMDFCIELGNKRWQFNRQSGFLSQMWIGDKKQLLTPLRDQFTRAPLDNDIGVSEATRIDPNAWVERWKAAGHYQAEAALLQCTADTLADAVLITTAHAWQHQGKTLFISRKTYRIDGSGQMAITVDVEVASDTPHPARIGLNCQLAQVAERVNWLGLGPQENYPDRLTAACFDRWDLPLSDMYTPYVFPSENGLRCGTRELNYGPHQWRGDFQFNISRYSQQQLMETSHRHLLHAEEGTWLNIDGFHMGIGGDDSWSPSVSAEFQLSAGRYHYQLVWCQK

Molecular target: β-galactosidase of E. coli (Escherichia coli, UniProt P00722)
Type: biochemical
Conditions: free ligands

OC[C@H]1O[C@@H](O[C@H]2[C@H](O)[C@@H](O)C(O)O[C@@H]2CO)[C@H](O)[C@@H](O)[C@H]1O (stereo partly shown) [lactose]
processing by β-galactosidase relative to the specific activity of GONP: 5-10%
